Results reported in the supplement of paper PMC10849652.
The other results are listed elsewhere or left out.

By UniProt entry, the sequences of proteins in these tests, tags left out. Where a name states a change or a piece, a line headed by the entry shows the natural chain unless it says otherwise.
UniProt Q8N4S0: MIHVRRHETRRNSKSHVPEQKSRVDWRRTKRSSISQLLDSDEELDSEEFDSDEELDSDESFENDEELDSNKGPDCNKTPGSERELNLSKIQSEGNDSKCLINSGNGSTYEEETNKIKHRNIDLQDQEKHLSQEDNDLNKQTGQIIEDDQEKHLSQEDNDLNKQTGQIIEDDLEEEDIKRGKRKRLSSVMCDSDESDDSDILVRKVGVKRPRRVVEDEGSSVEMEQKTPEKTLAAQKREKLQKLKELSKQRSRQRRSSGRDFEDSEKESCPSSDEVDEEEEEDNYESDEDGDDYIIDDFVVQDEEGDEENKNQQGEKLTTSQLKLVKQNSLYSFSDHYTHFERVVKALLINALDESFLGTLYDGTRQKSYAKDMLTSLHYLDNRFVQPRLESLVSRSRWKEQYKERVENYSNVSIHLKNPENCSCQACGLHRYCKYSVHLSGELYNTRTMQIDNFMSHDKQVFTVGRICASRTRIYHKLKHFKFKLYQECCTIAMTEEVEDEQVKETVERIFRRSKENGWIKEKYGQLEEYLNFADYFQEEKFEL
UniProt P55211: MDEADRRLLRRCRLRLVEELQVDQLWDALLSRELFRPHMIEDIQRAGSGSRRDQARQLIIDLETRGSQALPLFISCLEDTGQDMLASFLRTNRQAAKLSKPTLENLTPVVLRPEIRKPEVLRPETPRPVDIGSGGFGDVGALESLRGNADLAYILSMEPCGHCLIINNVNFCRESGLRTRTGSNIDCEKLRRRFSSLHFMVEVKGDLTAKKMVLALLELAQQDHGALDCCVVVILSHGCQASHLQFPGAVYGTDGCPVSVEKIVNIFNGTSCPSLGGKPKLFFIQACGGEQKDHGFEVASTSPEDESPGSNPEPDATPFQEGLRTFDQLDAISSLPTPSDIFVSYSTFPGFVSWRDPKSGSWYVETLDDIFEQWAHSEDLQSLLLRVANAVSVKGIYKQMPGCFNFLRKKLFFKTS
UniProt Q9Y5K6, whole entry, looked up: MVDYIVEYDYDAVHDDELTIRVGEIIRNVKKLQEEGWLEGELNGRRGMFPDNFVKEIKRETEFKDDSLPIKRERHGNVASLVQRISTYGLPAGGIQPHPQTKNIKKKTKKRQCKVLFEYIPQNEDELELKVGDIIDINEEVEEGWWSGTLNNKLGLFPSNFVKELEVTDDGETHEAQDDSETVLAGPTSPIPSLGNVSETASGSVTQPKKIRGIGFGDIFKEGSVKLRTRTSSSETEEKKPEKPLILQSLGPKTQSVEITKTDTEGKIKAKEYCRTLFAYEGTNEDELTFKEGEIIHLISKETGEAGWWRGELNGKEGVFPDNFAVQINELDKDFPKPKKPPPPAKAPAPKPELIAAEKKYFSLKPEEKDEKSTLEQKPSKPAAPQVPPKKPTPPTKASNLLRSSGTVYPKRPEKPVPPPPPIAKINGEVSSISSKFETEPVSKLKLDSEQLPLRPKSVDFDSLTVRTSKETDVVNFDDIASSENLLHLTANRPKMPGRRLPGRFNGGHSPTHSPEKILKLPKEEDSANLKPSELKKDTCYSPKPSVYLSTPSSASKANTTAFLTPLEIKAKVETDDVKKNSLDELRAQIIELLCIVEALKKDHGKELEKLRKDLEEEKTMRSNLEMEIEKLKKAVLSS
UniProt Q8IX12: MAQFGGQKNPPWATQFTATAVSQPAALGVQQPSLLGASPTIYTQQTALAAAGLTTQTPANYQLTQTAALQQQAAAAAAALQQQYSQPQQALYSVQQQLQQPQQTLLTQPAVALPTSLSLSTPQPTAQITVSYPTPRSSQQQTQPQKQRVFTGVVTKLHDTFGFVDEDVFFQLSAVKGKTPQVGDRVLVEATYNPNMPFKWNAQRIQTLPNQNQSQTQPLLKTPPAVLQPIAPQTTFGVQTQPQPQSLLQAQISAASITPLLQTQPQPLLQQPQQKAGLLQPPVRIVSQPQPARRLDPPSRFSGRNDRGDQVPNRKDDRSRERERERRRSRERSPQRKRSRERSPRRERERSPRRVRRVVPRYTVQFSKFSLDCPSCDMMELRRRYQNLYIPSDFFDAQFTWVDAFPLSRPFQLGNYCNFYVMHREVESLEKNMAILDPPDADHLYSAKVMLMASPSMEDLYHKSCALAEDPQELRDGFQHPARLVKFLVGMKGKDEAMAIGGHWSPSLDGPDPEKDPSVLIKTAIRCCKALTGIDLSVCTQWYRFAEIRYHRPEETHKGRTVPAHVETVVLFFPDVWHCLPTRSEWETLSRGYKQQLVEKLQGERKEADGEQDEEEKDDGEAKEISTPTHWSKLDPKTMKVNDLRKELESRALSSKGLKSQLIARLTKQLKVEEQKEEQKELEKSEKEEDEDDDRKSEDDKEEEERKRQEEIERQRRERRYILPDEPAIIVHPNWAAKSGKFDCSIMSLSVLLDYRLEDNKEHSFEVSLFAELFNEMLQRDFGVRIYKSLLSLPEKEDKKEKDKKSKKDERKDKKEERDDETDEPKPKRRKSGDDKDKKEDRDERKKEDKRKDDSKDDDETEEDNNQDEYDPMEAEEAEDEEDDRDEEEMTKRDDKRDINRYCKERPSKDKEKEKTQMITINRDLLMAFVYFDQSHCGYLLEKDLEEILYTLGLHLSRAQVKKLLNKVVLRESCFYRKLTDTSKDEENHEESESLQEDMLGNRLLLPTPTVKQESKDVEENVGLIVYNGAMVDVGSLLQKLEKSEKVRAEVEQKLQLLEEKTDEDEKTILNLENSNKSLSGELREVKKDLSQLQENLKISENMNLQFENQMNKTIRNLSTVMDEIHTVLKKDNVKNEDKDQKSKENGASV
UniProt Q9H6F5: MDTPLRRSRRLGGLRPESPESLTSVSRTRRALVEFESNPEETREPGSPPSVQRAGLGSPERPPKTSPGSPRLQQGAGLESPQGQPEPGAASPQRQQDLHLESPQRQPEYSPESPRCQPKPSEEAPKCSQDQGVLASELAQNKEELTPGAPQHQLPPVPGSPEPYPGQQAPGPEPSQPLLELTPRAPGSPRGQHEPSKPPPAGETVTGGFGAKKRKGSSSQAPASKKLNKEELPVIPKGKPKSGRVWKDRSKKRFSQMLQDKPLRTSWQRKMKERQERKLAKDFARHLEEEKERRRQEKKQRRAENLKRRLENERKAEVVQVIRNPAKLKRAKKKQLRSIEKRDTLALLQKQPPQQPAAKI
UniProt Q8IUF1: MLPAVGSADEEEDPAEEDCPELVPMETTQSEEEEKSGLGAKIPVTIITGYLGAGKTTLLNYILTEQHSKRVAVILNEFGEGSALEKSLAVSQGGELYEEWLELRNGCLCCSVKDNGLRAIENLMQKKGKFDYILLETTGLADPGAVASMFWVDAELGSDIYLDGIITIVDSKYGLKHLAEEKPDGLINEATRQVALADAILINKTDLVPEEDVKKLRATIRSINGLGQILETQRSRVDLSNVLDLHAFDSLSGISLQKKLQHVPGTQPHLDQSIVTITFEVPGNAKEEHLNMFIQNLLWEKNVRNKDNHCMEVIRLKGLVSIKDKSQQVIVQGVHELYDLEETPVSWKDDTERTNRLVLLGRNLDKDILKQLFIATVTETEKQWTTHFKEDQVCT
UniProt Q96F63: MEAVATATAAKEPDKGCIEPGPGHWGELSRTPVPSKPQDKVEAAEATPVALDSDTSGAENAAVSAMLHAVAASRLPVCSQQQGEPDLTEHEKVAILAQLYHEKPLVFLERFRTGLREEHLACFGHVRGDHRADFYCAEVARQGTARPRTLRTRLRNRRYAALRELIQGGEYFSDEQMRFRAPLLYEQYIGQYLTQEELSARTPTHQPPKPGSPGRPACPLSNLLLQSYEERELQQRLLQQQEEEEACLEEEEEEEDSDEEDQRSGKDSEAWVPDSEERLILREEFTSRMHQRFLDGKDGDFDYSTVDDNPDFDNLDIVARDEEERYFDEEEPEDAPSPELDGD
UniProt P19256, whole entry, looked up: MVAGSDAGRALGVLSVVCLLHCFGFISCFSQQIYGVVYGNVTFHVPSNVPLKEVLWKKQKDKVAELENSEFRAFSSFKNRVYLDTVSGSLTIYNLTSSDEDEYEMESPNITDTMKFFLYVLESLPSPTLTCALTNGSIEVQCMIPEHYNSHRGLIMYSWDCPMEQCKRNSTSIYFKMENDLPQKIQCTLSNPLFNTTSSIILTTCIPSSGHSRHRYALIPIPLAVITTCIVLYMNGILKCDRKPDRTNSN
UniProt Q8IWP9: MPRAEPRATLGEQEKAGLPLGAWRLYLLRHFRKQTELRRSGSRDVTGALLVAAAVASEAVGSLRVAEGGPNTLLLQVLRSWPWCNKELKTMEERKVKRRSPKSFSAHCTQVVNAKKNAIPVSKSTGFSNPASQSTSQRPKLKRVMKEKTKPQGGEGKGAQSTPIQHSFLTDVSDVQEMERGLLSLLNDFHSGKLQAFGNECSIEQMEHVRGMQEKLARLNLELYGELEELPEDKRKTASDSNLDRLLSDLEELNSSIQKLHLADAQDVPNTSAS
UniProt Q9NPF0: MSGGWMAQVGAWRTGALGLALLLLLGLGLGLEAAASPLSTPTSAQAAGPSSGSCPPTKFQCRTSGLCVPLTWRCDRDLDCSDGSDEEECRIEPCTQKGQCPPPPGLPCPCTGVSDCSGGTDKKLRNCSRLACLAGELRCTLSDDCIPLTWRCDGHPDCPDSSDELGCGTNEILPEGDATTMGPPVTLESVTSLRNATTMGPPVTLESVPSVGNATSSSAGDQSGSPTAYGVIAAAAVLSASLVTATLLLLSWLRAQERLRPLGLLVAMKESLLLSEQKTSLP
UniProt Q7Z6B0: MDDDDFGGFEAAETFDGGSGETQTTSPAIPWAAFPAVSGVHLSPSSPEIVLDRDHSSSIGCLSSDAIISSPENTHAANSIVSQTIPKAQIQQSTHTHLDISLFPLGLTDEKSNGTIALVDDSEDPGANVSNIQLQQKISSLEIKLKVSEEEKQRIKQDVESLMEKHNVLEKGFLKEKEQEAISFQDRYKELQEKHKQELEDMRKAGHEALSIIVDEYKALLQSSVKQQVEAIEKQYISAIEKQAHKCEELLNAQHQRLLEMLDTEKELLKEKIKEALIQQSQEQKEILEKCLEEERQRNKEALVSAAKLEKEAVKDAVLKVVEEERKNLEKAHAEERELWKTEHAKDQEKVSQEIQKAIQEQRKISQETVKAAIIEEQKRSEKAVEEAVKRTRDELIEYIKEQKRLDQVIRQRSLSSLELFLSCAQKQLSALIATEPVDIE
UniProt Q8N7R7: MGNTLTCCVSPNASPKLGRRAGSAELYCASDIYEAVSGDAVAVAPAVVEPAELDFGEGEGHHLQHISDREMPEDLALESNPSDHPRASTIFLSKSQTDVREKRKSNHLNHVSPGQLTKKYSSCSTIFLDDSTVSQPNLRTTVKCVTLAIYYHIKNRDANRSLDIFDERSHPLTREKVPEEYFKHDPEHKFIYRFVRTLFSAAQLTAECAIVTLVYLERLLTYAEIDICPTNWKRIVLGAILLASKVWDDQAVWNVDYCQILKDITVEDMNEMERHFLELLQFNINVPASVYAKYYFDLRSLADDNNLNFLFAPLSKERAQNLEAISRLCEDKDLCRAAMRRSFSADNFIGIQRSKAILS
UniProt P42574: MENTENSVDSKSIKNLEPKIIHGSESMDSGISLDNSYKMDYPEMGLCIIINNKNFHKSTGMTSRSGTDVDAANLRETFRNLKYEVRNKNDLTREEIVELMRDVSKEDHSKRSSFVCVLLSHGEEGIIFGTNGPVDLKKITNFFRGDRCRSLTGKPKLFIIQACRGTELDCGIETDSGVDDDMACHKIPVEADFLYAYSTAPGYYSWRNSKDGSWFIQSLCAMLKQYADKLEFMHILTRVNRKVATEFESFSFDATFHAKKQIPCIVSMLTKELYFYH
UniProt Q6P4E1: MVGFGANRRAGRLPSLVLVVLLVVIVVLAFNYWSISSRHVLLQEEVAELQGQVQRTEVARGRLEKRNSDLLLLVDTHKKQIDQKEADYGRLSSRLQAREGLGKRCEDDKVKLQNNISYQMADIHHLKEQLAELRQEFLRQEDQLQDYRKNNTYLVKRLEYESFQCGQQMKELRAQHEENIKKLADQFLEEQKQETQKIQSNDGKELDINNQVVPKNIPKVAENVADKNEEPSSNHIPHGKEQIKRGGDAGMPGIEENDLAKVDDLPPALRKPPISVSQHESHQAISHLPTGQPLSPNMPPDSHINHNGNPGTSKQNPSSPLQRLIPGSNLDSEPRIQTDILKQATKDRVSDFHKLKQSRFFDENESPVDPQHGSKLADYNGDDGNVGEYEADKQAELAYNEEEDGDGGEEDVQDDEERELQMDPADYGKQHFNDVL

Legend:
Experiment in all cases: log2 fold change, soluble protein after heating vs DMSO (PISA); higher = thermal stabilisation; K562 lysate, 10 uM; active = over 0.2 and 3.5 SD of the protein, either way, in both replicates (recomputed)
[1] = compound: C#Cc1cccc(Nc2ncnc3cc(OCCOC)c(OCCOC)cc23)c1 [erlotinib]
In short: (§1)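 Thermal stability, expressed as log-two fold change relative to solvent controls, is given from duplicates. Crude K562 extract in PBS pH 7.4 with 1 mM MgCl2, at 1 mg/mL protein, was treated with 10 μM compound for 30 min and heated in aliquots for 3 min across 48°C-58°C. After pooling, adjustment to 0.5% NP-40 at 4°C and centrifugation at 21,000xg for 90 min, supernatant protein was measured by TMTpro 16plex LC-MS/MS with channel sums equalised.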

[2] = compound: C/C(=N\NC(=O)C1=CC(=CC=C1)S(=O)(=O)N2CCOCC2)/C3=C(C=CC(=C3)Cl)O
In short: as §1

[3] = compound: C1=CC(=CC=C1C2=NC3=C(N2)C=C(C=C3)C(=O)N)OC4=CC=C(C=C4)Cl
In short: as §1

[4] = compound: C1=CC2=C(C=CC(=C2)/C=C\3/C(=O)NC(=NCC4=CC=CS4)S3)N=C1
In short: as §1

[5] = compound: C1=CC2=NC=CN=C2C=C1/C=C/3\C(=O)NC(=O)S3
In short: as §1

[6] = compound: C1=CC=C(C=C1)C2=NC(=C(N2)C3=CC=NC=C3)C4=CC(=C(C=C4)Cl)O
In short: as §1

[7] = compound: C1=CC=C2C(=C1)C3=NNC4=CC=CC(=C43)C2=O
In short: as §1

[8] = compound: C1CCN(C1)C(=O)NC2=CC=CC(=C2)NC3=NC=C(C(=N3)NCCC4=CN=CN4)Br
In short: as §1

[9] = compound: C1CN(CCC1(CC2=CC=C(C=C2)Cl)N)C3=NC=NC4=C3C=CN4
In short: as §1

[10] = compound: C1COCCN1CCN2C3=CC=CC=C3N=C2NC(=O)C4=CC(=CC=C4)[N+](=O)[O-] [IRAK-1-4 Inhibitor I]
In short: as §1

[11] = compound: C=CC(=O)N1CCC[C@@H](n2nc(-c3ccc(Oc4ccccc4)cc3)c3c(N)ncnc32)C1 [ibrutinib]
In short: as §1

[12] = compound: CC(=O)c1cnc2ccc(-c3cc(Cl)c(O)c(Cl)c3)nc2c1N[C@H]1CC[C@H](CN(C)C)CC1
In short: as §1

[13] = compound: CC(C)(C)Cn1c(N)nc2ccc(-c3[nH]c(C(C)(C)C)nc3-c3ccc(F)cc3)nc21 [ralimetinib]
In short: as §1

[14] = compound: CC(C)(O)CC(=O)NCCn1ccc2ncnc(Nc3ccc(Oc4cccc(C(F)(F)F)c4)c(Cl)c3)c21
In short: as §1

[15] = compound: CC(C)C1=C2N=C(C=C(N2N=C1)NCC3=CC=CC=C3)NCCCCCCN
In short: as §1

[16] = compound: CC1=C(C(CC(=O)N1)C2=CC=C(C=C2)C(F)(F)F)C(=O)NC3=C(C=C4C(=C3)C=NN4)F
In short: as §1

[17] = compound: CC1=C(C2=C(C=C1)C(=O)C3=CC=CC=C3N2CCCN)C
In short: as §1

[18] = compound: CC1=C(C=C(C=C1)NC(=O)C2=CC(=CC=C2)C(C)(C)C#N)NC3=CC4=C(C=C3)N=CN(C4=O)C
In short: as §1

[19] = compound: CC1=C(C=C(C=C1)NC(=O)C2=CC(=CC=C2)N(C)C)NC(=O)C3=CC=C(C=C3)O
In short: as §1

[20] = compound: CC1=CC=C(C=C1)SC2=C3C=C(SC3=CN=C2)C(=O)N
In short: as §1

Measured: log2 fold change

CBX4 (UniProt O00257)
inactive: [1] -0.011 | [2] 0.212 | [3] 0.013 | [4] 0.056 | [5] -0.065 | [6] 0.017 | [7] 0.045 | [8] -0.242 | [9] -0.141 | [10] 0.061 | [11] 0.034 | [12] -0.08 | [13] -0.078 | [14] -0.194 | [15] 0.014 | [16] -0.012 | [17] -0.07 | [18] -0.01 | [19] -0.038 | [20] -0.141

CCDC82 (UniProt Q8N4S0)
inactive: [1] -0.01 | [2] -0.018 | [3] 0.076 | [4] 0.07 | [5] 0.076 | [6] 0.005 | [7] 0.032 | [8] 0.001 | [9] 0.038 | [10] -0.106 | [11] -0.064 | [12] 0.086 | [13] 0.048 | [14] -0.079 | [15] -0.017 | [16] 0.028 | [17] 0.001 | [18] -0.029 | [19] 0.013 | [20] -0.159

CASP9 (UniProt P55211)
inactive: [1] -0.007 | [2] 0.008 | [3] 0.008 | [4] 0.03 | [5] 0.069 | [6] -0.002 | [7] -0.008 | [8] 0.014 | [9] 0.006 | [10] 0.034 | [11] -0.039 | [12] -0.06 | [13] 0.04 | [14] -0.06 | [15] -0.017 | [16] 0.01 | [17] -0.003 | [18] -0.01 | [19] 0.011 | [20] -0.012

CD2AP (UniProt Q9Y5K6)
inactive: [1] -0.011 | [2] -0.028 | [3] 0.03 | [4] -0.017 | [5] -0.019 | [6] 0.014 | [7] 0.01 | [8] 0.023 | [9] -0.002 | [10] 0.01 | [11] -0.003 | [12] -0.007 | [13] 0.015 | [14] -0.022 | [15] -0.005 | [16] 0.014 | [17] -0.012 | [18] 0.012 | [19] 0.012 | [20] -0.028

CCAR1 (UniProt Q8IX12)
inactive: [1] -0.009 | [2] -0.053 | [3] 0.015 | [4] 0.006 | [5] 0.005 | [6] -0.009 | [7] -0.003 | [8] -0.018 | [9] 0.001 | [10] 0.023 | [11] 0.014 | [12] 0.003 | [13] -0.004 | [14] -0.021 | [15] 0.012 | [16] 0.018 | [17] 0.013 | [18] -0.05 | [19] -0.003 | [20] -0.005

CCDC86 (UniProt Q9H6F5)
inactive: [1] -0.026 | [2] -0.093 | [3] -0.011 | [4] 0.008 | [5] 0.005 | [6] 0.02 | [7] 0.002 | [8] 0.02 | [9] 0.024 | [10] 0.033 | [11] -0.01 | [12] -0.036 | [13] -0.027 | [14] -0.039 | [15] 0.024 | [16] -0.054 | [17] -0.052 | [18] 0.001 | [19] -0.027 | [20] -0.016

CBL (UniProt P22681)
inactive: [1] -0.008 | [2] -0.01 | [3] 0.015 | [4] 0.053 | [5] -0.013 | [6] 0.035 | [7] 0.026 | [8] 0.006 | [9] 0.014 | [10] 0.04 | [11] 0.003 | [12] -0.001 | [13] 0.007 | [14] -0.022 | [15] -0.014 | [16] -0.019 | [17] -0.002 | [18] 0.005 | [19] -0.013 | [20] -0.026

CBWD2 (UniProt Q8IUF1)
inactive: [1] 0.039 | [2] 0.001 | [3] -0.006 | [4] 0.05 | [5] -0.027 | [6] 0.041 | [7] -0.04 | [8] 0.114 | [9] 0.062 | [10] -0.016 | [11] 0.024 | [12] 0.012 | [13] -0.025 | [14] -0.035 | [15] -0.009 | [16] -0.015 | [17] -0.052 | [18] 0.023 | [19] -0.033 | [20] -0.036

CCDC97 (UniProt Q96F63)
inactive: [1] 0.052 | [2] -0.075 | [3] 0.033 | [4] 0.03 | [5] 0.035 | [6] 0.011 | [7] 0.001 | [8] 0.021 | [9] 0.014 | [10] 0 | [11] 0.023 | [12] 0.088 | [13] -0.011 | [14] -0.035 | [15] 0.001 | [16] -0.012 | [17] 0.02 | [18] -0.027 | [19] 0.017 | [20] 0.048

CD58 (UniProt P19256)
inactive: [1] -0.077 | [2] 0.019 | [3] -0.014 | [4] 0.007 | [5] 0.008 | [6] -0.008 | [7] 0.011 | [8] 0.002 | [9] 0.006 | [10] -0.059 | [11] 0 | [12] -0.008 | [13] 0.056 | [14] 0.017 | [15] -0.106 | [16] -0.055 | [17] 0.058 | [18] -0.081 | [19] -0.018 | [20] 0.013

CCDC28A (UniProt Q8IWP9)
inactive: [1] -0.046 | [2] -0.175 | [3] 0.02 | [4] 0.069 | [5] -0.067 | [6] 0.032 | [7] -0.036 | [8] 0.011 | [9] -0.014 | [10] 0.012 | [11] 0.05 | [12] 0.054 | [13] -0.031 | [14] -0.031 | [15] 0.013 | [16] -0.069 | [17] -0.006 | [18] 0.069 | [19] -0.019 | [20] -0.066

CD320 (UniProt Q9NPF0)
inactive: [1] -0.05 | [2] -0.047 | [3] -0.015 | [4] -0.031 | [5] 0.037 | [6] 0.103 | [7] 0.019 | [8] -0.064 | [9] 0.012 | [10] -0.016 | [11] 0.15 | [12] -0.046 | [13] -0.006 | [14] 0.013 | [15] -0.02 | [16] 0.032 | [17] 0.025 | [18] -0.018 | [19] -0.05 | [20] 0

CCDC91 (UniProt Q7Z6B0)
inactive: [1] -0.004 | [2] 0.014 | [3] -0.004 | [4] -0.019 | [5] -0.026 | [6] 0.026 | [7] 0.006 | [8] -0.002 | [9] 0.007 | [10] 0.006 | [11] -0.006 | [12] 0.002 | [13] -0.014 | [14] -0.031 | [15] -0.043 | [16] -0.018 | [17] 0.027 | [18] -0.016 | [19] 0.018 | [20] -0.012

CCNYL1 (UniProt Q8N7R7)
inactive: [1] 0.026 | [2] -0.101 | [3] 0.084 | [4] 0.06 | [5] -0.04 | [6] -0.042 | [7] -0.002 | [8] -0.051 | [9] 0.049 | [10] 0.026 | [11] 0.047 | [12] 0.007 | [13] 0.019 | [14] -0.032 | [15] 0.012 | [16] 0.027 | [17] -0.023 | [18] 0.028 | [19] -0.027 | [20] -0.006

2 records picked at random from the list so far, as already listed:
CCDC91 (UniProt Q7Z6B0)
inactive: [1] -0.004 | [2] 0.014 | [3] -0.004 | [4] -0.019 | [5] -0.026 | [6] 0.026 | [7] 0.006 | [8] -0.002 | [9] 0.007 | [10] 0.006 | [11] -0.006 | [12] 0.002 | [13] -0.014 | [14] -0.031 | [15] -0.043 | [16] -0.018 | [17] 0.027 | [18] -0.016 | [19] 0.018 | [20] -0.012

CD58 (UniProt P19256)
inactive: [1] -0.077 | [2] 0.019 | [3] -0.014 | [4] 0.007 | [5] 0.008 | [6] -0.008 | [7] 0.011 | [8] 0.002 | [9] 0.006 | [10] -0.059 | [11] 0 | [12] -0.008 | [13] 0.056 | [14] 0.017 | [15] -0.106 | [16] -0.055 | [17] 0.058 | [18] -0.081 | [19] -0.018 | [20] 0.013

Next results follow.

CASP3 (UniProt P42574)
inactive: [1] -0.002 | [2] -0.02 | [3] 0.044 | [4] -0.001 | [5] 0.034 | [6] 0.02 | [7] -0.042 | [8] 0.011 | [9] 0.039 | [10] -0.007 | [11] 0.028 | [12] -0.004 | [13] 0.009 | [14] 0.012 | [15] -0.048 | [16] -0.047 | [17] -0.026 | [18] 0.025 | [19] -0.02 | [20] -0.01

CASC4 (UniProt Q6P4E1)
inactive: [1] -0.005 | [2] 0.004 | [3] -0.035 | [4] 0.003 | [5] -0.049 | [6] -0.02 | [7] -0.119 | [8] -0.013 | [9] 0.047 | [10] -0.008 | [11] 0.001 | [12] -0.032 | [13] -0.029 | [14] -0.008 | [15] -0.012 | [16] -0.055 | [17] 0.057 | [18] -0.016 | [19] 0.029 | [20] -0.036
